Where only a bound is given, the exact number is not on record here.

These results are taken from US20230270892A1, “CHELATOR COMPOSITIONS FOR RADIOMETALS AND METHODS OF USING SAME” (TRIUMF INC., priority 2020, published 2023).

Common to all, as to assay type: physicochemical
A short description of data set [1]: ^225Ac radiolabelling of crown, crown-TATE and DOTA monitored by radioTLC. As to conditions: for chelator concentration at which quantitative ^225Ac labeling was achieved: 15 minutes. Here is the method:
^225Ac labeling of crown was achieved by mixing the ligand and isotope in acetate buffers between pH 5-7 at ambient temperature. Reactions were monitored by radioTLC. TLC plates were scanned 5 hours after developing to allow the decay of short-lived isotopes, particularly ^213Bi that binds stronger with DOTA-type chelators, and for ^225Ac to reach equilibrium. Crown or Crown-TATE (3 µL, 10^-3 M aqueous unless specified), purified ^225Ac (2.5 uL in 0.05 M HNO3) and ammonium acetate buffer (20 µL, 1 M, fresh) mixed together and kept at room temperature for 30 minutes.
1-5 µL of sample was spotted on SA iTLC plate (silicic acid-embedded instant thin layer chromatography plate) and developed with ethylenediamine tetraacetic acid (EDTA) (pH 5, 0.05 M). Free Ac moves to the solvent front, and Ac labelled products stay close to the bottom of the plate. Alternatively, the TLC can also be developed on a silica plate with Al backing, using citrate buffer (pH 4, 0.4 M). The plate was counted 1 day after to allow the decay of shorter lived isotopes.
Stock solutions of crown (10^-3 M - 10^-6 M) and DOTA (10^-3 M - 10^-6 M) were prepared in water. Ligand (1 µL), buffer (1 M pH 7 NH4OH, 1 µL), water (7 µL), and ^225Ac stock (1 µL, 10-30 kBq) were mixed together. For crown, the reaction was kept at room temperature for 15 min and for DOTA, the reaction was at 90° C. for 15 min. 2-5 µL was taken for radioTLC monitoring at various time points. The sample was spotted on a silica plate with aluminium backing (10 cm x 1.5 cm) and developed with sodium citrate (0.4 M, pH 4). The plates were scanned >5 hours later when all the daughters reach secular equilibrium. Under those conditions, unchelated actinium migrates to the solvent front (Rf=1) and chelated actinium remains close baseline (Rf<0.5). n=3 for each data point.

Data set [2] can be described thus: ^177Lu labelling of crown versus DOTA. Here is the method:
Experiments were also conducted to evaluate the labelling of crown, crown-αMSH and crown-TATE with other radiometals. Results for the three constructs and a comparative chelator DOTA chelating ^177Lu are shown in FIG. 16 at various concentrations of chelator.

The nature of data set [3]: ^225Ac radiolabeling yield and molar activity of αMSH constructs. As to conditions: for Molar activity: final product, n = 5. Here is the method:
In a similar method as described above, ^225Ac -crown-αMSH was generated upon incubation of the modified peptide with ^225Ac in acetate buffer. […] When purification was required, light C18 Sep-Pak™ was used to remove free ^225Ac. Molar activity for the final product was determined to be 4.1 ± 1.9 MBq/nmol (n = 5), the highest among reported methods to date.^[20,22] Serum stability study indicated ~90% ^225Ac remain chelated over 8 days.

For the compound `O=C(O)CN1CCOCCN(CC(=O)O)CCN(CC(=O)O)CCOCCN(CC(=O)O)CC1` [crown, 2,2’,2”,2’”-(1,10-dioxa-4,7,13,16-tetraazacyclooctadecane-4,7,13,16-tetrayl)tetraacetic acid], the “chelation of ^225Ac, reaction reached (radioTLC)” value in data set [1] (crown concentration of 10^-5 M, at 10 min, room temperature) was greater than 96%. In data set [1] (room temperature and neutral pH), the “concentration as low as which a stable complex with ^225Ac forms quantitatively” value is 10^-5 M. In addition, the “chelator concentration at which quantitative ^225Ac labeling was achieved” value in data set [1] (room temperature) is recorded as > 10^-6 M. Also, in data set [2] (room temperature, 15 minutes), the “chelator concentration at which quantitative ^177Lu labelling was achieved” value is listed as 10^-6 M.

With `O=C(O)CN1CCN(CC(=O)O)CCN(CC(=O)O)CCN(CC(=O)O)CC1` [DOTA, reference compound], the “chelator concentration at which quantitative ^225Ac labeling was achieved” value in data set [1] (90° C.) is > 10^-4 M. Moreover, the “chelator concentration at which quantitative ^177Lu labelling was achieved” value in data set [2] (90° C., 30 minutes) is given as 10^-4 M.

For `CCCC[C@H](NC(=O)CN1CCC(NC(=O)CN2CCOCCN(CC(=O)O)CCN(CC(=O)O)CCOCCN(CC(=O)O)CC2)CC1)C(=O)N[C@H]1CC(=O)NCCCC[C@@H](C(N)=O)NC(=O)[C@H](Cc2c[nH]c3ccccc23)NC(=O)[C@H](CCCNC(=N)N)NC(=O)[C@@H](Cc2ccccc2)NC(=O)[C@H](Cc2c[nH]cn2)NC1=O` [^225Ac-crown-αMSH, metal not drawn], the “radiolabeling yields with ^225Ac” value in data set [3] (acetate buffer, levels up to 6 MBq) is recorded as greater than 98%. In addition, the Molar activity in data set [3] was found to be 4.1 MBq/nmol; in data set [3] (listed as 225Ac -crown-αMSH), 4.1 ± 1.9 MBq/nmol.
